The exact form of at least one protein or probe is not confirmed.
How the values were obtained:
[1] = target: MDA5 deltaCARD (MDA5 without the two N-terminal CARDs) (UniProt Q9BYX4); test: EMSA; conditions: 5'-triphosphate (T7 transcript); 20 mM HEPES pH 7.5, 150 mM NaCl, 1.5 mM MgCl2, 2 mM DTT, 37 C; purified recombinant protein; protein details: deltaCARD, provided by Sun Hur
[2] = target: RIG-I deltaCARD (RIG-I without the two N-terminal CARDs) (UniProt O95786); test: EMSA; conditions: 5'-triphosphate (T7 transcript); without ATP and with 1 uM ATP; 20 mM HEPES pH 7.5, 150 mM NaCl, 1.5 mM MgCl2, 2 mM DTT, 37 C; purified recombinant protein; protein details: deltaCARD, provided by Sun Hur

Sequences of proteins named here, by UniProt entry; tags and fusion partners are left off. A change or cut given only in a name is not applied to a line headed by its entry.
UniProt Q9BYX4: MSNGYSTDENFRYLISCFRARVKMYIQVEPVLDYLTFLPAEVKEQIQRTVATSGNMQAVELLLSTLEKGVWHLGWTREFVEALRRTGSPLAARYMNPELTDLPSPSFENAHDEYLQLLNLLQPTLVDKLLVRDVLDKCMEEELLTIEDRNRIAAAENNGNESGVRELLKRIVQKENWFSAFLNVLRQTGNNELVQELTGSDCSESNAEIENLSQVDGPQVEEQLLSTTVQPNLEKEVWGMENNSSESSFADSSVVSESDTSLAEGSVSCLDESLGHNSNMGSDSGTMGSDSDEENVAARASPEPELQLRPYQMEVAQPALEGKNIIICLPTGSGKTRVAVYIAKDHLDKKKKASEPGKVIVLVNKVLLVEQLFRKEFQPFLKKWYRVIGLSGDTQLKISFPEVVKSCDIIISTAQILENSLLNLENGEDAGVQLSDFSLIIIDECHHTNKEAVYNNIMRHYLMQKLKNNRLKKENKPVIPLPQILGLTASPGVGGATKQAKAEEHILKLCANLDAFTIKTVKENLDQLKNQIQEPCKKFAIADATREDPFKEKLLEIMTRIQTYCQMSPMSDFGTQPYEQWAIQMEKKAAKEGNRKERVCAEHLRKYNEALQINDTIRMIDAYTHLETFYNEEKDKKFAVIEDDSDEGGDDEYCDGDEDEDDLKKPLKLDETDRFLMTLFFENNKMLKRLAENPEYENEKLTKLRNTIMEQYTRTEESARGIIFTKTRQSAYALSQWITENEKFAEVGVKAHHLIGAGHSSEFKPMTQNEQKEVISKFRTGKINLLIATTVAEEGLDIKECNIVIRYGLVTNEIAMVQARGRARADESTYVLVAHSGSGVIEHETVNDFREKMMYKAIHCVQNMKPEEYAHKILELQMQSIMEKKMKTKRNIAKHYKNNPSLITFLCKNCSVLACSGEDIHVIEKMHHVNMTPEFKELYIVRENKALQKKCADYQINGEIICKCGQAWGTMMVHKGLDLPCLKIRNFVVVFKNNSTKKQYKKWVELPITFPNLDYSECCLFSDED
UniProt O95786: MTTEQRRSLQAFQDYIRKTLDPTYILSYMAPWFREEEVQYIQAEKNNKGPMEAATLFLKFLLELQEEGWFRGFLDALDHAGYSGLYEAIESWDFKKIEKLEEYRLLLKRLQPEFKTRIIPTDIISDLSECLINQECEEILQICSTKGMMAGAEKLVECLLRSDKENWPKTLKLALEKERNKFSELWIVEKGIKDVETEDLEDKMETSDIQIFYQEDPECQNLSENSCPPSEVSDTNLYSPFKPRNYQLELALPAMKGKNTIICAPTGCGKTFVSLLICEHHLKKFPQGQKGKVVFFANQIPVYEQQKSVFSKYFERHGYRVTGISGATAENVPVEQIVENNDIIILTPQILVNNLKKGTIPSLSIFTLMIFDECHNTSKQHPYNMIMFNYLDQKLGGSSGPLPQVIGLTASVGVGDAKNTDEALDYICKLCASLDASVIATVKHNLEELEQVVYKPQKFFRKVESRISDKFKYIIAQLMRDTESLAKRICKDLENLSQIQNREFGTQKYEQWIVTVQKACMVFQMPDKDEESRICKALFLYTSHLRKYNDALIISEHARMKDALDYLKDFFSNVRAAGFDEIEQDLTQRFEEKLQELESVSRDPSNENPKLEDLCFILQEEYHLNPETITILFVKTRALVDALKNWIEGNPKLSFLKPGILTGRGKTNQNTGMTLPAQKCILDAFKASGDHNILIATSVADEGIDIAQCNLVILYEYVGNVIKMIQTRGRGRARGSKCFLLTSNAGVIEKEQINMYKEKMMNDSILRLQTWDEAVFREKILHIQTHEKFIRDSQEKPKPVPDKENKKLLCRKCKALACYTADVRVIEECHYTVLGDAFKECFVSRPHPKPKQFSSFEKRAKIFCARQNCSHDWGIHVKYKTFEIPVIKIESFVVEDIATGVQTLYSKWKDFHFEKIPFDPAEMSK

Sequence: ACCAGACAAGAGUUUAAGAGAUAUGUAUCCUUUUAAAUUUUCUUGUCUUCUUGUAAGUUUUUCUUGCUAUUGUCAUAUGGAUAAGUCCAAGACUAUCUUUAUCUAUGUCCACAAGAUUGGUAACUGGGUCAUUCCCUGACCAGAAGUUUGAAGCAAGACUUCCCGGUACCUGGAAGUCUUGGACUUAUCCAUAUGACAAUAGUAAGAAAAACUUACAAGAAGACAAGAAAAUUUAAUAGGAUACAUAUCUCUUAAACUCUUGUCUGGU [DVG-268 ivtRNA]
- binding result [1]: binds
- binding result [2]: binds

— patent publication US10624964, “Methods and compositions for stimulating immune response using potent immunostimulatory RNA motifs” (The Trustees of the University of Pennsylvania)
